{"source": "PubChem BioAssay AID1259405 | NCATS | 2018", "test": "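Mouse-designed siRNAs used to find CHO productivity engineering targets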 (primary screen)", "system": "Chinese hamster CHO-K1 ovary cells with stable secreted eGFP expression", "reagents": "single siRNA against mouse genes, 0.8 pmol siRNA per well (2 µl of 400 nM stock)", "duration": "3 days", "read-out": "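Percent of the per-plate non-targeting control median for intracellular GFP per well by laser scanning cytometry and for cell viability by ATP luminescence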", "reading the numbers": "GFP, % of control: higher = more GFP per well, higher productivity; viability (ATP), % of control: higher = more viable cells (more ATP)", "rule for the call": "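Called active when intracellular GFP, relative to negative control, is at or above 120%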", "note": "Here is a random part of about 50,000 reagents. In the full data, about 4,000 (8%) were called active. 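Mouse siRNA library applied to hamster cells; one well for each siRNA.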 Reagents against one gene are numbered here. No sequences are given here."}
{"gene symbol": "Stat5a", "siRNA no.": 1, "GFP, % of control": 75.6, "viability (ATP), % of control": 94.4, "outcome": "inactive"}
{"gene symbol": "Stat5a", "siRNA no.": 2, "GFP, % of control": 62.3, "viability (ATP), % of control": 77.7, "outcome": "inactive"}
{"gene symbol": "Stat5a", "siRNA no.": 3, "GFP, % of control": 65.3, "viability (ATP), % of control": 89.3, "outcome": "inactive"}
{"gene symbol": "Lmo3", "siRNA no.": 1, "GFP, % of control": 89.6, "viability (ATP), % of control": 89.4, "outcome": "inactive"}
{"gene symbol": "Lmo3", "siRNA no.": 2, "GFP, % of control": 57.7, "viability (ATP), % of control": 40.4, "outcome": "inactive"}
{"gene symbol": "Lmo3", "siRNA no.": 3, "GFP, % of control": 57.2, "viability (ATP), % of control": 65.3, "outcome": "inactive"}
{"gene symbol": "Fstl1", "siRNA no.": 1, "GFP, % of control": 55.7, "viability (ATP), % of control": 65.9, "outcome": "inactive"}
{"gene symbol": "Fstl1", "siRNA no.": 2, "GFP, % of control": 98.4, "viability (ATP), % of control": 125, "outcome": "inactive"}
{"gene symbol": "Sln", "siRNA no.": 1, "GFP, % of control": 61.8, "viability (ATP), % of control": 67, "outcome": "inactive"}
{"gene symbol": "Sln", "siRNA no.": 2, "GFP, % of control": 67.5, "viability (ATP), % of control": 52.2, "outcome": "inactive"}
{"gene symbol": "Sln", "siRNA no.": 3, "GFP, % of control": 57.1, "viability (ATP), % of control": 69.7, "outcome": "inactive"}

Reformatted: entries from further up.
gene symbol | siRNA no. | GFP, % of control | viability (ATP), % of control | outcome
Sln | 1 | 61.8 | 67 | inactive
Sln | 2 | 67.5 | 52.2 | inactive

Next entries follow:
{"gene symbol": "Man2b2", "siRNA no.": 1, "GFP, % of control": 75.4, "viability (ATP), % of control": 63.5, "outcome": "inactive"}
{"gene symbol": "Man2b2", "siRNA no.": 2, "GFP, % of control": 98.6, "viability (ATP), % of control": 82.4, "outcome": "inactive"}
{"gene symbol": "Man2b2", "siRNA no.": 3, "GFP, % of control": 75.2, "viability (ATP), % of control": 66.6, "outcome": "inactive"}
{"gene symbol": "Mettl2", "siRNA no.": 1, "GFP, % of control": 91.9, "viability (ATP), % of control": 72.5, "outcome": "inactive"}
{"gene symbol": "Mettl2", "siRNA no.": 2, "GFP, % of control": 45, "viability (ATP), % of control": 73.4, "outcome": "inactive"}
{"gene symbol": "Mettl2", "siRNA no.": 3, "GFP, % of control": 99, "viability (ATP), % of control": 121, "outcome": "inactive"}
